Earlier results, collected in patent US5747660A, “Nucleic acid encoding prostaglandin F2α receptor regulatory protein” (priority 1995, dated 1998).
At least one read-out could not be matched to a standard name with certainty.

Details: cited from earlier work

**Q.** With `CCCCC[C@H](O)/C=C/[C@@H]1[C@@H](C/C=C\CCCC(=O)O)[C@@H](O)C[C@H]1O` [PGF2α, Prostaglandin F2α] as the molecule, how does the “Clearance per pass through the liver and lungs” value read?
**A.** ~90%
